Values of other authors, collected in US20050203105A1, “Composition and method for controlling alcohol-induced facial flushing in susceptible humans” (priority 2003, published 2005).
Entries after “also recorded” stand apart in the source; their conditions may differ.

Question: With `CN/C(=N/CCSCc1nc[nH]c1C)NC#N` [Cimetidine] as the molecule, how does the “serum / blood alcohol levels” value (alcohol and H2 blocker administered) read?
Answer: The value was “small elevations of serum alcohol levels; also recorded: higher blood ethanol levels”.

Question: What about the ethanol concentration-time curve (ethanol ingested on an empty stomach) of the same molecule?
Answer: Its ethanol concentration-time curve is “does not influence the ethanol concentration-time curve”.

Question: What about the ethanol elimination rate (fasting men and women) of the same molecule?
Answer: The ethanol elimination rate was “unchanged”.
